In US20190183843A9, “USE OF DIANHYDROGALACTITOL OR DERIVATIVES OR ANALOGS THEREOF FOR TREATMENT OF PEDIATRIC CENTRAL NERVOUS SYSTEM MALIGNANCIES” (DelMar Pharmaceuticals, Inc., priority 2015, published 2019):
Read-outs that look alike come from different tables or passages of the source. For part of these data: At least one compound was matched to its structure with a doubt left. Some entries share one result that the patent states for a list of compounds.

How the values were obtained:
[1] = tested on: A2780 ovarian cancer cell line; test: Cytotoxicity of the combination with olaparib, 5 days; format: cell-based
BT74 cancer stem cells = test: Neurosphere formation of cancer stem cells; format: cell-based
[2] = tested on: MGMT-positive or -negative, MMR-proficient or -deficient cells; settings: cited from earlier work

SMILES	fraction of cells affected (Fa), individual drug [1]	sensitivity of BT74 cancer stem cells (BT74 cancer stem cells)	sensitivity ([2]; MGMT Negative, MMR-Deficient)	sensitivity ([2]; MGMT Negative, MMR-Proficient)	sensitivity ([2]; MGMT Positive, MMR-Deficient)	sensitivity ([2]; MGMT Positive, MMR-Proficient)
O=C(c1cc(Cc2n[nH]c(=O)c3ccccc23)ccc1F)N1CCN(C(=O)C2CC2)CC1 [olaparib, reference compound]	15-25%					
Cn1nnc2c(C(N)=O)ncn2c1=O [temozolomide]		do not show significant sensitivity	Resistant	Sensitive	Resistant	Resistant
